PubChem BioAssay AID1259405 – NCATS, 2018
The whole screen tested about 50,000 reagents; shown is a random part of them. Of all reagents, about 4,000 (8%) got an active call. 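Mouse siRNA library applied to hamster cells; one well for each siRNA.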 Reagents against one gene are numbered here. Reagent sequences are not shown.

Screen: 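Mouse-designed siRNAs used to find CHO productivity engineering targets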 (primary screen)
Cell system: Chinese hamster CHO-K1 ovary cells with stable secreted eGFP expression
Reagents: single siRNA against mouse genes, 0.8 pmol siRNA per well (2 µl of 400 nM stock)
Timing: 3 days
Measured: 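Per-well intracellular GFP measured by laser scanning cytometry, plus viability from ATP luminescence, each relative to plate median of non-targeting control wells, in %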
Scale: GFP, % of control: higher = more GFP per well, higher productivity; viability (ATP), % of control: higher = more viable cells (more ATP)
Hit rule: 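Called active when intracellular GFP, relative to negative control, is at or above 120%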

Ormdl3 #1 showed GFP, % of control 102; viability (ATP), % of control 38.2; inactive. Against Ormdl3 #2, the values are GFP, % of control 143; viability (ATP), % of control 82.6; active. Silencing of Ormdl3 #3 gave: GFP, % of control 95.7; viability (ATP), % of control 107; inactive. For Or8b55 #1, the values are GFP, % of control 91.5; viability (ATP), % of control 41.8; inactive. Depletion of Or8b55 #2 came out at: GFP, % of control 57.5; viability (ATP), % of control 57.9; inactive. With knock-down of Or8b55 #3, the record shows GFP, % of control 70.9; viability (ATP), % of control 85.6; inactive.

Amy1 #1 scored GFP, % of control 57.3; viability (ATP), % of control 68.1; inactive. Against Amy1 #2, the entry reads GFP, % of control 96.3; viability (ATP), % of control 112; inactive. With knock-down of Amy1 #3 the results were GFP, % of control 20.1; viability (ATP), % of control 19.7; inactive. Cotl1 #1 showed GFP, % of control 53.5; viability (ATP), % of control 83.7; inactive. Cotl1 #2 scored GFP, % of control 60.7; viability (ATP), % of control 70.1; inactive. Depletion of Cotl1 #3 came out at: GFP, % of control 70; viability (ATP), % of control 109; inactive.

Depletion of Cdhr1 #1 resulted in: GFP, % of control 64.7; viability (ATP), % of control 65.5; inactive. After knock-down of Cdhr1 #2, the screen gave GFP, % of control 64.3; viability (ATP), % of control 65.9; inactive. Abl2 #1 showed GFP, % of control 106; viability (ATP), % of control 79.2; inactive. Abl2 #2 scored GFP, % of control 109; viability (ATP), % of control 78.6; inactive. Against Abl2 #3 the deposit lists GFP, % of control 69.9; viability (ATP), % of control 70.3; inactive. For Pkhd1 #1, the entry reads GFP, % of control 63; viability (ATP), % of control 65.9; inactive.

With knock-down of Pkhd1 #2, the record shows GFP, % of control 91.9; viability (ATP), % of control 86.5; inactive. Silencing of Pkhd1 #3 resulted in: GFP, % of control 86.8; viability (ATP), % of control 69.2; inactive. For Zfp692 #1 the deposit lists GFP, % of control 44.6; viability (ATP), % of control 80.8; inactive. Knock-down of Zfp692 #2 came out at: GFP, % of control 83.7; viability (ATP), % of control 101; inactive. Mrc2 #1 showed GFP, % of control 75.5; viability (ATP), % of control 161; inactive. After knock-down of Mrc2 #2, the record shows GFP, % of control 108; viability (ATP), % of control 76; inactive.

Serpina7 #1 showed GFP, % of control 71.7; viability (ATP), % of control 78.2; inactive. For Serpina7 #2, the entry reads GFP, % of control 74.9; viability (ATP), % of control 65.8; inactive. Serpina7 #3 showed GFP, % of control 81.1; viability (ATP), % of control 81.1; inactive. Knock-down of Rpa2 #1 gave: GFP, % of control 119; viability (ATP), % of control 87.6; inactive. Rpa2 #2 gave GFP, % of control 101; viability (ATP), % of control 98.4; inactive. Knock-down of Rbm26 #1 gave: GFP, % of control 68.1; viability (ATP), % of control 80; inactive.

Knock-down of Rbm26 #2 came out at: GFP, % of control 69.2; viability (ATP), % of control 87.6; inactive. Rbm26 #3 showed GFP, % of control 62.5; viability (ATP), % of control 61.1; inactive. Rela #1 showed GFP, % of control 101; viability (ATP), % of control 99.4; inactive. Rela #2 showed GFP, % of control 28.3; viability (ATP), % of control 28.6; inactive. For Rela #3, the values are GFP, % of control 75; viability (ATP), % of control 99.9; inactive. Against Rpl15 #1 the deposit lists GFP, % of control 34.6; viability (ATP), % of control 25.9; inactive.

Knock-down of Rpl15 #2 gave: GFP, % of control 34.9; viability (ATP), % of control 57.5; inactive. With knock-down of Rpl15 #3 the results were GFP, % of control 85.4; viability (ATP), % of control 95.1; inactive. Silencing of Serac1 #1 gave: GFP, % of control 93; viability (ATP), % of control 80.5; inactive. After knock-down of Serac1 #2, the screen gave GFP, % of control 65.2; viability (ATP), % of control 64.9; inactive. Knock-down of Serac1 #3 came out at: GFP, % of control 24.7; viability (ATP), % of control 57.8; inactive. Pomk #1 scored GFP, % of control 120; viability (ATP), % of control 106; inactive.

Against Pomk #2, the entry reads GFP, % of control 121; viability (ATP), % of control 94.7; active. With knock-down of Pomk #3, the record shows GFP, % of control 163; viability (ATP), % of control 145; active. For Vsx2 #1 the deposit lists GFP, % of control 100; viability (ATP), % of control 94.7; inactive. With knock-down of Vsx2 #2, the record shows GFP, % of control 100; viability (ATP), % of control 81.5; inactive. Against Vsx2 #3 the deposit lists GFP, % of control 70; viability (ATP), % of control 69.1; inactive. Kctd14 #1 gave GFP, % of control 68.8; viability (ATP), % of control 67.1; inactive.

Knock-down of Kctd14 #2 gave: GFP, % of control 172; viability (ATP), % of control 113; active. With knock-down of Naa25 #1 the results were GFP, % of control 132; viability (ATP), % of control 100; active. With knock-down of Naa25 #2, the screen gave GFP, % of control 77.8; viability (ATP), % of control 85.1; inactive. With knock-down of Naa25 #3, the record shows GFP, % of control 46.8; viability (ATP), % of control 51.7; inactive.

Records above marked active (5):
Ormdl3 #2 | GFP, % of control = 143; viability (ATP), % of control = 82.6; Call = active
Pomk #2 | GFP, % of control = 121; viability (ATP), % of control = 94.7; Call = active
Pomk #3 | GFP, % of control = 163; viability (ATP), % of control = 145; Call = active
Kctd14 #2 | GFP, % of control = 172; viability (ATP), % of control = 113; Call = active
Naa25 #1 | GFP, % of control = 132; viability (ATP), % of control = 100; Call = active
